Measured values taken from article PMC12635182.
No constants are given. Whether binding was seen depends on the method and setting. In cells and extracts the contact can be indirect. Some results given as binding are weak or reduced against the parent protein; the word gives no strength. Sequences can lack the tags named with a protein.

Target: T1, VN-Sph1 (synphilin-1 fused behind the N-terminal fragment of Venus) (human) (UniProt Q9Y6H5)
T1 sequence: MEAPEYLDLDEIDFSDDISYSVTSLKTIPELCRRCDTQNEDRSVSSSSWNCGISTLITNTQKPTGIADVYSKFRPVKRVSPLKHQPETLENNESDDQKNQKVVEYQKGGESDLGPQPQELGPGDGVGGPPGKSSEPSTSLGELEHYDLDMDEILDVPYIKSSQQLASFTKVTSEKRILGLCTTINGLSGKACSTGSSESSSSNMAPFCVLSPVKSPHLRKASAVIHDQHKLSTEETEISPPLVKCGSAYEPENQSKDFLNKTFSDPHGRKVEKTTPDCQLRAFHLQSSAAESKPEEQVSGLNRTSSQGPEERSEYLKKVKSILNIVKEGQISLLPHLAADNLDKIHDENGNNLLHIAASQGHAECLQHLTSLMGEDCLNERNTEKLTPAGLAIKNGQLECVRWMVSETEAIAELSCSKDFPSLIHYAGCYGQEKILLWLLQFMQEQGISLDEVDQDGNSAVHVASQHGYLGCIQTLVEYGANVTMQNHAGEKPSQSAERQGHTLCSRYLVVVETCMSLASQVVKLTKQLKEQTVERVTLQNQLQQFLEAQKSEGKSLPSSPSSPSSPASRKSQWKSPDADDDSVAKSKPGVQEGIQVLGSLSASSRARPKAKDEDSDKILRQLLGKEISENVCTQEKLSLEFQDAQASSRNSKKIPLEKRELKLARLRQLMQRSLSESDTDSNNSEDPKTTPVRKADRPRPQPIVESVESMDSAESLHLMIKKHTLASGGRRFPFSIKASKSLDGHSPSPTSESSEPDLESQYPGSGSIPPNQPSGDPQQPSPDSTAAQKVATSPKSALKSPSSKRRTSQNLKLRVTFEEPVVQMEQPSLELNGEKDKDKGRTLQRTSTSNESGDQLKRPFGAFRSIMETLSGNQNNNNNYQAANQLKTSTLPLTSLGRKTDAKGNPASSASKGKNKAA
Assay: split reporter; Venus BiFC in HEK 293 cells co-transfected with equimolar amounts of the VN and VC plasmids; fluorescence seen 24 or 48 h after transfection

B1: Sph1-VC (synphilin-1 fused in front of the C-terminal fragment of Venus) (protein, UniProt Q9Y6H5 1-919)
chain: T1 sequence
binding: binds
